Some of the results follow.
Compound: CC1Cc2ccccc2N1C(=O)C1CCCN(C1)C(=O)CCl (mixture of isomers) [TRIM25 ligand 11 (diastereomer mixture)]
Test: probe-labelled cysteine peptide fold change vs DMSO (competition) (log2 fold change); higher = less target engagement (more negative = stronger competition)
Settings: THP-1, incubation time: 4 h
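Further: competitive chemoproteomic profiling in live THP-1 cells with an iodoacetamide desthiobiotin (IA-DTB) probe, comparing probe-labelled peptide intensities in compound-treated cells against DMSO-treated controls.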

The chains behind the UniProt entries cited, without tags or fusion partners. Where a name states a change or a piece, a line headed by the entry shows the natural chain unless it says otherwise.
UniProt P09884: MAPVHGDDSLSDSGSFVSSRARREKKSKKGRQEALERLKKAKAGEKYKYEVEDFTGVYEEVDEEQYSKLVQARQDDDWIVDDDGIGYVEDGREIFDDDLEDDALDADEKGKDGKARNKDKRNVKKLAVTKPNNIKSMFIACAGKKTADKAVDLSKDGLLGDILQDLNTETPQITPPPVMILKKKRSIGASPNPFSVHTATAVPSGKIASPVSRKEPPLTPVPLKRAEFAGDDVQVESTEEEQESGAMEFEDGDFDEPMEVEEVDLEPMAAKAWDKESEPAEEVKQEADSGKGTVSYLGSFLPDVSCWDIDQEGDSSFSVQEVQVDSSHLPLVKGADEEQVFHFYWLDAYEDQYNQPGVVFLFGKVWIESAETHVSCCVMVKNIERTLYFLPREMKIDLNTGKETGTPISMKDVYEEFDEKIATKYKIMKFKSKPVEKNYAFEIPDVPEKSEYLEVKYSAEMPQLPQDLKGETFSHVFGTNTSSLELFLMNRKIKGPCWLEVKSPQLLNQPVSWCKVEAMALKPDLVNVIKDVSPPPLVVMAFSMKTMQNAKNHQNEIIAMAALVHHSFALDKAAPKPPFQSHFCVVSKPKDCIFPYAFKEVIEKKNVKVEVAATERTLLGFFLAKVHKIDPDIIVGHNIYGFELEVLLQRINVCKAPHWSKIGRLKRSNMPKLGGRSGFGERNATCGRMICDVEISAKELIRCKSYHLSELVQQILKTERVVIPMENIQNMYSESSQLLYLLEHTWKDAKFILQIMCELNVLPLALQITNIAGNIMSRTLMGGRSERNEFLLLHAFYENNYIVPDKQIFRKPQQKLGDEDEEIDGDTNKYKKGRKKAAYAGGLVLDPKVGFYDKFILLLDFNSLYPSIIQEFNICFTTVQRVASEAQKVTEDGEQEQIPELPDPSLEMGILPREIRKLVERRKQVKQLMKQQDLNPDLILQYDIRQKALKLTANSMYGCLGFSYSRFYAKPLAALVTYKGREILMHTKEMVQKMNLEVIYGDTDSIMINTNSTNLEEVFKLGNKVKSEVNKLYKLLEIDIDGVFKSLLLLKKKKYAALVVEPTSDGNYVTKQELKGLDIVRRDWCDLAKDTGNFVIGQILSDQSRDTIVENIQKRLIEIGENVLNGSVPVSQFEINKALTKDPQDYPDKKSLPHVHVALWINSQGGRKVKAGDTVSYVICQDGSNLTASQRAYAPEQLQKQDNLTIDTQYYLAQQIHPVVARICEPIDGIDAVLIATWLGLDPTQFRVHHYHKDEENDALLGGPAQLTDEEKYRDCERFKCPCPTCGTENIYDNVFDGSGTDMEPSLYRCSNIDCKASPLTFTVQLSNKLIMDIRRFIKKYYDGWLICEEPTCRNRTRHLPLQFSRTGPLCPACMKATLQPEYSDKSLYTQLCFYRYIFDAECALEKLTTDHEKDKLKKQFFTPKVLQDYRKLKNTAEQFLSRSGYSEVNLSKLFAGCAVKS
UniProt Q08752, whole entry, looked up: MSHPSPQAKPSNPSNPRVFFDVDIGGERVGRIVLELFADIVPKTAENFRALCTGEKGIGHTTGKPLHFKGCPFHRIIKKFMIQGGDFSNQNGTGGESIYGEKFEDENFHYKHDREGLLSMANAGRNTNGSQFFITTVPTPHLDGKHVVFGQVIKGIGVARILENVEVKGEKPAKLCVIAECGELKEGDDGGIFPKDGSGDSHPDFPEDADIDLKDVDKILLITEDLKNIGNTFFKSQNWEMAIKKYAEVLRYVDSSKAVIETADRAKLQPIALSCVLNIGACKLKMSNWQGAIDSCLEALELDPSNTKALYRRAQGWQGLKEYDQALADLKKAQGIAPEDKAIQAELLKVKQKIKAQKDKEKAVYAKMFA
UniProt O95602, whole entry, looked up: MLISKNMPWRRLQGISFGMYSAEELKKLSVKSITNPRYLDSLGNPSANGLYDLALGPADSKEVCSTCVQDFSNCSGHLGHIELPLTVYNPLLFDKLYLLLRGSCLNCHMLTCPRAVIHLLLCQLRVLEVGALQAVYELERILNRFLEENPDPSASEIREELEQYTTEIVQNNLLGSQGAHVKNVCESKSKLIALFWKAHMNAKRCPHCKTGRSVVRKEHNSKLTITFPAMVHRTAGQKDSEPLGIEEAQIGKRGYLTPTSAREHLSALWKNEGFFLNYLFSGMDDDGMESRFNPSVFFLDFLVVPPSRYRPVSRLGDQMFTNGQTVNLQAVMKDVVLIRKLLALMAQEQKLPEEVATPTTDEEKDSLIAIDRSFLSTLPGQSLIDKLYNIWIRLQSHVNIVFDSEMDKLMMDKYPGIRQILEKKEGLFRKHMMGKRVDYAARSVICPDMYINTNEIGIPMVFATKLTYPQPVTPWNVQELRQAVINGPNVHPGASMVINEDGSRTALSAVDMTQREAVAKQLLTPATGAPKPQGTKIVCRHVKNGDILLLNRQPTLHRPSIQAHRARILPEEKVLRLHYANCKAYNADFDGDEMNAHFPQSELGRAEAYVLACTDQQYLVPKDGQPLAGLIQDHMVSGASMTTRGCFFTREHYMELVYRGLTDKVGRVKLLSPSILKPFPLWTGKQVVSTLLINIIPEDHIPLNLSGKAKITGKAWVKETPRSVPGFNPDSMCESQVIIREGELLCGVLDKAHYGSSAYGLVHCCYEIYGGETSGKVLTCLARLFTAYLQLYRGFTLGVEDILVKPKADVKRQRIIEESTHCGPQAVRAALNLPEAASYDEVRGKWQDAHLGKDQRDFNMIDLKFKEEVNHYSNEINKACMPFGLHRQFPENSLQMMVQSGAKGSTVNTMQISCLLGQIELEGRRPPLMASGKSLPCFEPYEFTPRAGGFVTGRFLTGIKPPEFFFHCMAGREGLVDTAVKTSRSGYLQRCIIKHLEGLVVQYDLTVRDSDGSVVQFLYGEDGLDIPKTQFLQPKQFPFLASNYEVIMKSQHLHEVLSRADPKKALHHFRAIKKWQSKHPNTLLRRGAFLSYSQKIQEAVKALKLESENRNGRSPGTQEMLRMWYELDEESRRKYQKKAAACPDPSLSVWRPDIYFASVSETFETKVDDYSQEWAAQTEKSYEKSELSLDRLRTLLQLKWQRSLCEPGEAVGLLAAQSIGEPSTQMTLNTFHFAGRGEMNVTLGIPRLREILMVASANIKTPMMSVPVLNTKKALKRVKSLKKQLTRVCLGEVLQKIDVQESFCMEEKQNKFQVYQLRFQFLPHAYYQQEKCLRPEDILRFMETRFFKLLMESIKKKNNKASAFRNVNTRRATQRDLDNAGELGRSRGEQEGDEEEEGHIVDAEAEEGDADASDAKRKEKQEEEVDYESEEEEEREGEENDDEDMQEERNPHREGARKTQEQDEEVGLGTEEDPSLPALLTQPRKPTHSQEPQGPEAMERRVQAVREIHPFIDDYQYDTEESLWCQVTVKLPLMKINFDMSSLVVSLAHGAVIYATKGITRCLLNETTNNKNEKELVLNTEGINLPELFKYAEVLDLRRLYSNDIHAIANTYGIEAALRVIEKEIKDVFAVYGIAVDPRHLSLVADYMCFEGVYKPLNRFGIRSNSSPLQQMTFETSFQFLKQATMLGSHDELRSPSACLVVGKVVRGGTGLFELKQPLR
UniProt P00491: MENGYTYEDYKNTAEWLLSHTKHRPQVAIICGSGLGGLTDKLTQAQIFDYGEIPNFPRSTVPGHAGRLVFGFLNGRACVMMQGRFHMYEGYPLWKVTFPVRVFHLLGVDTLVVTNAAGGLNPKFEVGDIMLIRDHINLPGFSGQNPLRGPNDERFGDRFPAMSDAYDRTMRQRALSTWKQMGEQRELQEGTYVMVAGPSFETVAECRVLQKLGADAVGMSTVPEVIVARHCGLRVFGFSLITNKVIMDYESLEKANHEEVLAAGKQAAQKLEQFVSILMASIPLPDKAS
UniProt P28340: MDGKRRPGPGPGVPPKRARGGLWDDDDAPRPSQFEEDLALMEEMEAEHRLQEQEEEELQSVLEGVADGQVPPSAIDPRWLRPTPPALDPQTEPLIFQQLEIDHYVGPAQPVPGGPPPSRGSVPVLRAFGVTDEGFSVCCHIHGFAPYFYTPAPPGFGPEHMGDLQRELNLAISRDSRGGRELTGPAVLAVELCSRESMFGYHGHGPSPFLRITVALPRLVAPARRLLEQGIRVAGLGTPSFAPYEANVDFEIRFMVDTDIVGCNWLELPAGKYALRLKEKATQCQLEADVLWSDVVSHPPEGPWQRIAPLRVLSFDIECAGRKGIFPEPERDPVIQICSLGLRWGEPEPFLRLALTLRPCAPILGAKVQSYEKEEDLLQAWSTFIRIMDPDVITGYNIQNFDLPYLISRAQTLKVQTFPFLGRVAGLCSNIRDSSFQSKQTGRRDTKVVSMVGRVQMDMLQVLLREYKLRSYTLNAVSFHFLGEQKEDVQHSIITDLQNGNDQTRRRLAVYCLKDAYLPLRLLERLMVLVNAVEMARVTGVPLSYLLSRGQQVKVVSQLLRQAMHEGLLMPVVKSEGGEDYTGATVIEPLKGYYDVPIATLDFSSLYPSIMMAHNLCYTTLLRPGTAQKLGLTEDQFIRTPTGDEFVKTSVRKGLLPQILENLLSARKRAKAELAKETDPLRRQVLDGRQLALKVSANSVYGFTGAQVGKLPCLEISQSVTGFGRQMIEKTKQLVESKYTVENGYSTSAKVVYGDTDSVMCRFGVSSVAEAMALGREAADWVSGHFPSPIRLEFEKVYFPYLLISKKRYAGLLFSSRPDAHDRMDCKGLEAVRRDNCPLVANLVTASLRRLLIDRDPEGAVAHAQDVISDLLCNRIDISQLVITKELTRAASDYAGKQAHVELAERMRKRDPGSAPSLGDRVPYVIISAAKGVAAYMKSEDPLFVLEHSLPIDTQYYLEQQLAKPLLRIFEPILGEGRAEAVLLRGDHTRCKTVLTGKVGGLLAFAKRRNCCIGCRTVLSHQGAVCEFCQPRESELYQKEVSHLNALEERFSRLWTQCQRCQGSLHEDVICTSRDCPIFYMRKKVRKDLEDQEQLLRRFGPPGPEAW
UniProt P16435: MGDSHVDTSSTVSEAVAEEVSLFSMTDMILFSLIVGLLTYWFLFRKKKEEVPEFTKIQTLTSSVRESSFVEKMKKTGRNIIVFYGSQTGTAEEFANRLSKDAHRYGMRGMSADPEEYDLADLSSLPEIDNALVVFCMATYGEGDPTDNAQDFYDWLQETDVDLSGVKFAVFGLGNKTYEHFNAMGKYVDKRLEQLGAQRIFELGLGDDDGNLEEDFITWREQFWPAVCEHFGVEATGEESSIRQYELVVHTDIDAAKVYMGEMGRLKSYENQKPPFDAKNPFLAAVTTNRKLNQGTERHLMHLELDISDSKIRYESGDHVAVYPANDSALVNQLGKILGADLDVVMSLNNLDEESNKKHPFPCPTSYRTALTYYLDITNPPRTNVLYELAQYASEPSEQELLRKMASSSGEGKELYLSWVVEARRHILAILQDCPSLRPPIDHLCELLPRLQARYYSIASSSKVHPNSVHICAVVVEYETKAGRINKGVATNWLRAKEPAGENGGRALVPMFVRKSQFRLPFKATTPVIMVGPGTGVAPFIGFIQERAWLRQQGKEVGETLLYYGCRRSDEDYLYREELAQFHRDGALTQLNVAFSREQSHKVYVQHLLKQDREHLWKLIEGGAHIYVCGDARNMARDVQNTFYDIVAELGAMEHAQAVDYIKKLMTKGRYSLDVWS
UniProt P0CAP2, whole entry, looked up: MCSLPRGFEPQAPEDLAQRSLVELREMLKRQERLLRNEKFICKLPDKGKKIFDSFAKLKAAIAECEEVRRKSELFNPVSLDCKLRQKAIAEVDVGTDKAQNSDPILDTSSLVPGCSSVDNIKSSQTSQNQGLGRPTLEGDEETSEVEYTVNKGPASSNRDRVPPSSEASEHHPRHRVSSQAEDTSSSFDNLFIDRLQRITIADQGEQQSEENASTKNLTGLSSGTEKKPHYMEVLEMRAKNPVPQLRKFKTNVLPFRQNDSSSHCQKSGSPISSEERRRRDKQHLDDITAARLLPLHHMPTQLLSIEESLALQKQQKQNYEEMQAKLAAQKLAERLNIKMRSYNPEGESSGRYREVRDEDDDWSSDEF
UniProt Q9NP87, whole entry: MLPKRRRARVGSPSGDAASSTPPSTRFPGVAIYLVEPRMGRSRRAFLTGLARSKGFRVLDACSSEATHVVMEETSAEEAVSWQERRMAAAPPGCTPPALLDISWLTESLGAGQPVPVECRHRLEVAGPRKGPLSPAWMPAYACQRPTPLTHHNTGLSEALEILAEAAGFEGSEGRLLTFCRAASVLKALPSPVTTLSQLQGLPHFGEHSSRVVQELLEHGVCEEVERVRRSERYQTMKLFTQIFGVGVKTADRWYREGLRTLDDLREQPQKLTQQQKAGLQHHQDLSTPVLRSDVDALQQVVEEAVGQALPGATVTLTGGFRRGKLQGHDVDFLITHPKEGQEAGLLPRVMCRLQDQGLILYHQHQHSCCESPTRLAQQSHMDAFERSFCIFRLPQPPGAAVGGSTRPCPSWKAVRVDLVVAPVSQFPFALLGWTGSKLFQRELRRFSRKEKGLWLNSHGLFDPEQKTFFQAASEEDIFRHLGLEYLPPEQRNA

| Target | probe-labelled cysteine peptide fold change (10 µM) | probe-labelled cysteine peptide fold change (50 µM) |
| --- | --- | --- |
| PPCDC_Q96CD2_7_ASCPAAAPLMER (UniProt Q96CD2) | -0.208 | -0.188 |
| POLA1_P09884_584_AAPKPPFQSHFCVVSKPK (UniProt P09884) | -0.23 | -0.194 |
| POLR2B_P30876_1093_FGEMERDCQIAHGAAQFLR (UniProt P30876) | -0.378 | -0.363 |
| PPID_Q08752_282_LQPIALSCVLNIGACK (UniProt Q08752) | -0.05 | 0.184 |
| POP1_Q99575_252_CLLQDLSYYCCLELK (UniProt Q99575) | -0.0485 | 0.105 |
| PPA2_Q9H2U2_44_GQPCSQNYR (UniProt Q9H2U2) | -0.00102 | 0.0357 |
| POTEJ_P0CG39_880_LCYVALDFEQEMAMVASSSSLEK (UniProt P0CG39) | 0.0549 | 0.37 |
| POLR2A_P24928_981_VVLPCNLLR (UniProt P24928) | -0.146 | 0.143 |
| POLR1B_Q9H9Y6_1098+1101_KYNCTLCSR (UniProt Q9H9Y6) | 0.0414 | -0.0535 |
| POLR1A_O95602_446_SVICPDMYINTNEIGIPMVFATK (UniProt O95602) | -0.109 | -0.212 |
| PNP_P00491_31_HRPQVAIICGSGLGGLTDK (UniProt P00491) | 0.00797 | 0.0271 |
| POLD1_P28340_338_KGIFPEPERDPVIQICSLGLR (UniProt P28340) | -0.172 | -0.0675 |
| POLD1_P28340_1026+1029_TVLSHQGAVCEFCQPR (UniProt P28340) | -0.0904 | -0.197 |
| POLR1B_Q9H9Y6_944_SAALHGLCHDATPFIFSEENSALEYFGEMLK (UniProt Q9H9Y6) | 0.236 | 0.0202 |
| PNP_P00491_78_ACVMMQGR (UniProt P00491) | 0.104 | 0.188 |
| POLA2_Q14181_556_DVLGCVCVNPGR (UniProt Q14181) | -0.0778 | 0.171 |
| POLR1A_O95602_968_FLTGIKPPEFFFHCMAGR (UniProt O95602) | -0.123 | -0.0379 |
| POR_P16435_434+445_HILAILQDCPSLRPPIDHLCELLPR (UniProt P16435) | 0.00998 | -0.182 |
| POLR2A_P24928_184_GHGGCGR (UniProt P24928) | -0.0378 | 0.0214 |

| Target | probe-labelled cysteine peptide fold change (10 µM) | probe-labelled cysteine peptide fold change (50 µM) |
| --- | --- | --- |
| PPAT_Q06203_496_HDIMIQENGNGLECFEK (UniProt Q06203) | 0.0844 | 0.126 |
| POM121C_A8CG34_245_MVCSPVTVR (UniProt A8CG34) | -0.224 | -0.1 |
| POLR3B_Q9NW08_272_AMGVESDQEIVQMIGTEEHVMAAFGPSLEECQK (UniProt Q9NW08) | 0.389 | 0.314 |
| POLA1_P09884_497_GPCWLEVK (UniProt P09884) | -0.00228 | 0.056 |
| POMGNT1_Q8WZA1_490_ECIIPDVSR (UniProt Q8WZA1) | 0.0512 | 0.187 |
| POLR2L_P62875_10_CFTCGK (UniProt P62875) | -0.177 | -0.12 |
| PPID_Q08752_71_GCPFHR (UniProt Q08752) | -0.0219 | -0.209 |
| POU2F2_P09086_187_CLEPPSHPEEPSDLEELEQFAR (UniProt P09086) | 0.123 | -0.0384 |
| POLR2M_P0CAP2_82_KSELFNPVSLDCK (UniProt P0CAP2) | -0.0241 | -0.292 |
| PNPT1_Q8TCS8_668_DFITEICK (UniProt Q8TCS8) | 0.284 | 0.104 |
| PPA1_Q15181_113+114+123_HTGCCGDNDPIDVCEIGSK (UniProt Q15181) | 0.0115 | -0.17 |
| POLR1A_O95602_746_EGELLCGVLDK (UniProt O95602) | 0.0815 | 0.0549 |
| POLR2A_P24928_641_VVVENGELIMGILCK (UniProt P24928) | 0.00875 | -0.126 |
| POLDIP3_Q9BY77_301+303_VTEEDIVELFCVCGALK (UniProt Q9BY77) | 0.0734 | 0.0944 |
| POP1_Q99575_876_GSPEPHTMICVPAK (UniProt Q99575) | 0.0403 | -0.121 |
| POR_P16435_472_VHPNSVHICAVVVEYETK (UniProt P16435) | 0.0977 | 0.00764 |
| POLD3_Q15054_137_FSAIQCAAAVPR (UniProt Q15054) | 0.0137 | 0.0506 |
| POLM_Q9NP87_222_VVQELLEHGVCEEVER (UniProt Q9NP87) | -0.0574 | -0.00939 |
| POLR1E_Q9GZS1_138_MDSCIEAFGTTK (UniProt Q9GZS1) | -0.0838 | -0.267 |

Taken from above:
For probe-labelled cysteine peptide fold change (10 µM), POLM_Q9NP87_222_VVQELLEHGVCEEVER (UniProt Q9NP87) reads -0.0574
For probe-labelled cysteine peptide fold change (10 µM), POR_P16435_472_VHPNSVHICAVVVEYETK (UniProt P16435) reads 0.0977
